For 2 molecules, binding results are on record in article PMC11468353.

Protein sequences, listed by entry. Tags and fused reporters are not part of them.
UniProt Q8K1M6: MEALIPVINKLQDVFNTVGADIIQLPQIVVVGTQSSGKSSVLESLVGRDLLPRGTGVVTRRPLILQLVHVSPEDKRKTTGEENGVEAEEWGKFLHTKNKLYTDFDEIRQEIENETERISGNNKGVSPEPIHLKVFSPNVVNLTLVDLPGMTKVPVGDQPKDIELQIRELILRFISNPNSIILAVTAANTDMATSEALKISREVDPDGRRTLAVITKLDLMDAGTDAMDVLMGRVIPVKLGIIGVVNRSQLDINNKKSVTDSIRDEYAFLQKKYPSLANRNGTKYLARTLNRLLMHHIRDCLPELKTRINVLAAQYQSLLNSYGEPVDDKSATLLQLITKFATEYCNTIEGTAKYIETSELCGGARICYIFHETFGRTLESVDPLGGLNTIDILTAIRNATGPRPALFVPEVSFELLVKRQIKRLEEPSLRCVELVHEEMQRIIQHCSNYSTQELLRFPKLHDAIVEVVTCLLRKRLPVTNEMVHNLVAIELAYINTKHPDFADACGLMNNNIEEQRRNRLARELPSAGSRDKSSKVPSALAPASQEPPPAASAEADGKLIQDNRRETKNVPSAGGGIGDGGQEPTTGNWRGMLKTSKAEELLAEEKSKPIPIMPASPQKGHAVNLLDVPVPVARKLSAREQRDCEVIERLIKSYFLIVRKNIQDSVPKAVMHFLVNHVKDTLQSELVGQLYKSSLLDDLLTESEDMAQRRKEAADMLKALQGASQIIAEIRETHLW

Results are given in words; binding and its absence hold for the method and conditions named. In cells and extracts the contact can be indirect. Some binding calls cover weakened binding; strength is not graded here.

For assay [1], the target named is T1, General control of amino acid synthesis 5 (GCN5) like-1 (GCN5L1) (mouse (endogenous in Neuro-2a cells and C57BL/6J brain tissue)) (UniProt O55102).
T1 sequence: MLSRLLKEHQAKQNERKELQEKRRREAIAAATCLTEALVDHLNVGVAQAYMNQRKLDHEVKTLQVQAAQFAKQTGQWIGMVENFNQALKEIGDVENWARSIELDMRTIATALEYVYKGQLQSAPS
The experiment in a line: co-IP; endogenous proteins in brain tissues of dMCAO (3 days) and control (sham) mice; IP with anti-GCN5L1 or anti-Drp1, western blot of the partner.

For assay [2], the target named is T1, General control of amino acid synthesis 5 (GCN5) like-1 (GCN5L1) (mouse (endogenous in Neuro-2a cells and C57BL/6J brain tissue)). The experiment in a line: co-IP; endogenous proteins in Neuro-2a cell lysate; antibody (anti-Drp1 or anti-GCN5L1) on Protein A/G magnetic beads, western blot of the partner; cells treated with OGD for different times (up to 4 h), with or without Compound C (5 µM, AMPK inhibitor).

Assay [3] deals with dynamin-related protein 1 (Drp1) (mouse (endogenous in Neuro-2a cells and C57BL/6J brain tissue)) (UniProt Q8K1M6). The description is as above.
Assay [4] shares this target. Put plainly: co-IP; endogenous proteins in brain tissues of dMCAO (3 days) and control (sham) mice; IP with anti-GCN5L1 or anti-Drp1, western blot of the partner.

For “dynamin-related protein 1 (Drp1) (from UniProt Q8K1M6 1-736)”, the binding entry in assay [1] and in assay [2] was “binds” each time.

B1: General control of amino acid synthesis 5 (GCN5) like-1 (GCN5L1) (protein, UniProt O55102 1-125)
chain: MLSRLLKEHQAKQNERKELQEKRRREAIAAATCLTEALVDHLNVGVAQAYMNQRKLDHEVKTLQVQAAQFAKQTGQWIGMVENFNQALKEIGDVENWARSIELDMRTIATALEYVYKGQLQSAPS
As for B1, the binding entry in assay [3] and in assay [4] was “binds” in each case.
